Results reported in patent publication US20080220416A1, “Compositions for Inhibiting Cell Growth and Inducing Apoptosis in Cancer Cells and Methods of Use Thereof” (THE BOARD OF TRUSTEES OF THE UNIVERSITY OF ILLINOI, priority 2004, published 2008).
Some of these results come from one statement about several compounds together. At least one structure is not confirmed: it was looked up by name or label, or the drawing left a doubt. Peptide text beside a SMILES is read from it. * marks the point of attachment. Cbz = O=C(OCc1ccccc1)*

System: RJ002L cells
Test: Caspase inhibitor pretreatment of RJ002L cells before z-Leu-Leu-Nle-CHO
Format: cell-based, human
Details: RJ002L pretreated; data not shown

Question: Which “reduction of z-Leu-Leu-Nle-CHO-mediated apoptotic response” value does the source give for `CC(C)[C@H](NC(=O)OCc1ccccc1)C(=O)N[C@@H](C)C(=O)N[C@H](C=O)CC(=O)O` [ZVAD-CHO] (Cbz-Val-Ala-Asp-aldehyde) here?
Answer: Its value is 30-50%.
